Results are given in words; binding and its absence hold for the method and conditions named. Binding seen in cells or lysates may run through a third protein. Binding calls can cover weak binding; strength is not graded here. Tags and fused reporters may be left off the sequences shown.
Biological target: T1, GST-KCBP (Arabidopsis thaliana) (UniProt Q9FHN8)
T1 sequence: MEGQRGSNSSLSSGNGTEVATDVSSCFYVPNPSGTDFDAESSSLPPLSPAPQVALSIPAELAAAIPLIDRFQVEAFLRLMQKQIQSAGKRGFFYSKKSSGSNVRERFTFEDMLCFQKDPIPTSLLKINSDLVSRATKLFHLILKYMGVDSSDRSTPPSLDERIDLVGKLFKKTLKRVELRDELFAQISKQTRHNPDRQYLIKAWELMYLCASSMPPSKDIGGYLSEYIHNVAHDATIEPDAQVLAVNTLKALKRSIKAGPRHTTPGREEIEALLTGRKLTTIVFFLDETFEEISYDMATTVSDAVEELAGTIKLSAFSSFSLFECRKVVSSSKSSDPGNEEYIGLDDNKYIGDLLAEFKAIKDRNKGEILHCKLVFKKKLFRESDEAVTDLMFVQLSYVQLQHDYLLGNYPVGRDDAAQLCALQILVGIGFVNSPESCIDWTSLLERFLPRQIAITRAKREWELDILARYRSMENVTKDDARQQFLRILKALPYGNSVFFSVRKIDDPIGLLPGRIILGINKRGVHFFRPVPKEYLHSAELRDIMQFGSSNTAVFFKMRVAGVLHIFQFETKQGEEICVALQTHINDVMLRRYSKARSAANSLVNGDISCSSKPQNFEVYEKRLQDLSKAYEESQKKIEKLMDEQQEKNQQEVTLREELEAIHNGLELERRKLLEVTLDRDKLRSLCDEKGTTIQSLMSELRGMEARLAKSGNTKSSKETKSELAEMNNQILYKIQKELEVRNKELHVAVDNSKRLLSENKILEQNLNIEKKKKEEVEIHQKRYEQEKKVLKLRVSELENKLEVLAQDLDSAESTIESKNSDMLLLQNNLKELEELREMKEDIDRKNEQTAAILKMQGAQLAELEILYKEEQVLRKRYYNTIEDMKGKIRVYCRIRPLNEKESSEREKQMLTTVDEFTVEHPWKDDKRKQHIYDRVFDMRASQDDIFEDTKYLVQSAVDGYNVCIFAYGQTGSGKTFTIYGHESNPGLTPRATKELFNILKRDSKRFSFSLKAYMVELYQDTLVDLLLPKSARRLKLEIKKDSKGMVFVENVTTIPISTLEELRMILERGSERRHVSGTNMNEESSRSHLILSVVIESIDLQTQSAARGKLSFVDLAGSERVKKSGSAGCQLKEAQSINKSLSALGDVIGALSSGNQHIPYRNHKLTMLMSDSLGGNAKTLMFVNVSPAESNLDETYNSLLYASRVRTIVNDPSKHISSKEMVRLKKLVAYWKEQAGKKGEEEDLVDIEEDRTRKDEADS
Test: pull-down; bacterial lysate with ~20 ug GST-KCBP mixed with lysate with ~15 ug MBP-TCS1 or MBP; Glutathione Sepharose 4B, 4 C, 1 h; washed five times with TGH buffer; anti-MBP immunoblot

Protein sequences, listed by entry. Tags and fused reporters are not part of them. Lines headed by an entry give the natural chain unless they say otherwise; changes in a name come on top.
UniProt Q0WSY2: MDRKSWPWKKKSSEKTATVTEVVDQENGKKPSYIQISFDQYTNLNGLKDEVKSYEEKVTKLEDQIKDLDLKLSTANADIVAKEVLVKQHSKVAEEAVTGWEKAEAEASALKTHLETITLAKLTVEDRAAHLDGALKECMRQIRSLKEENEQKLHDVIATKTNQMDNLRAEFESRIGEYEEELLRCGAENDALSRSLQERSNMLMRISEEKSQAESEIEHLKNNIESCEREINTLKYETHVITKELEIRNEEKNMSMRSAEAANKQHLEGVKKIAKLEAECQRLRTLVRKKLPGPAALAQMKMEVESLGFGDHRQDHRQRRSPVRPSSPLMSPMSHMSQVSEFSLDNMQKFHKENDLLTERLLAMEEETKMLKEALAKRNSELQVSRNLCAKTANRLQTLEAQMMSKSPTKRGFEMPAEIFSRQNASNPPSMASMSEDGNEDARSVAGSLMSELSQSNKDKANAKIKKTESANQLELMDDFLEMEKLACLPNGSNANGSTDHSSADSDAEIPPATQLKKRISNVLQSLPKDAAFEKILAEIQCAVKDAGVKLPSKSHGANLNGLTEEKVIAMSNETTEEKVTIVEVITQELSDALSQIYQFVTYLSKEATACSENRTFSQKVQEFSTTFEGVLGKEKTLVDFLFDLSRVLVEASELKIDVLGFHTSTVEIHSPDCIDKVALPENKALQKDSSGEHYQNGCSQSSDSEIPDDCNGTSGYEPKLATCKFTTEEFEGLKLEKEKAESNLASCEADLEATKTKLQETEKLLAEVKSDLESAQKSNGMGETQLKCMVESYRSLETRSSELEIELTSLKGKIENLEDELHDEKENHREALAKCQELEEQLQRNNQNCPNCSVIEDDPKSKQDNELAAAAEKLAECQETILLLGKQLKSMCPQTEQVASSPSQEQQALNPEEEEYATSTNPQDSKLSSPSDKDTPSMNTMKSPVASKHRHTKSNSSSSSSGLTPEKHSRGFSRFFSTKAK

Substance: MBP-TCS1 (TRICHOME CELL SHAPE 1 fused to maltose binding protein) (from UniProt Q0WSY2)
- binding: binds

Source: article PMC5074588
